Values joined by “and” are separate entries in the source; they are usually repeats but may differ in a detail not shown here. Equal values may be shown once. The list shows a part of the results. Further columns of the screen follow, without active or inactive calls. The list favours compounds with an active or inconclusive main result. For part of these data: Words in brackets tell the shape of the fitted curve; partial curves, single points and poor fits give uncertain potencies.
Key:
[1] = qHTS Assay for Modulators of Human Peripheral Myelin Protein 22 (PMP22) Expression/Activity (AID 1967); conditions: Cell-based PMP22 reporter, dual-color luciferase ratio
How it was run: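 Quantitative HTS in a mouse Schwann cell line expressing dual click beetle luciferases: Pmp22 promoter (green) and control EF-alpha promoter (red). After 24h treatment, corrected green/red signal ratio gave %Activity relative to untreated cells.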

[2] = qHTS Validation Assay to Find Inhibitors of Chronic Active B-Cell Receptor Signaling (AID 485345); conditions: ABC-DLBCL cells, chronic BCR signaling reporter
How it was run: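 Read-out: ratio of filter-corrected green (IkappaBalpha fusion) to red (native) luciferase signal in doxycycline-induced TMD8 cells after 4 h at 37C. Titration spanned 46 uM–3 nM; Data were normalised to basal cells and 10 uM MG-132 wells.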

[3] = A High-Content qHTS Against Drug Library for the Identification of Small Molecules that Inhibit DYT1 Early Onset Primary Dystonia-Associated Cell Pathology (AID 1645839); conditions: HEK293 Flp-In EGFP-delE TorsinA, punctate imaging, 48 h; measured here: cell count cytotoxicity
How it was run: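 High-content imaging quantified EGFP-TorsinA mislocalization in HEK293-derived cells inducibly expressing DYT1 mutant torsinA, after 48 h exposure to compound given together with tetracycline induction. Cell count served as a toxicity channel alongside %pathology.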

[4] = qHTS for identification of novel therapeutic agents for treatment of microphthalmiaassociated transcription factor (MiT) renal cell carcinoma (RCC) (AID 1963991); conditions: CellTiter-Glo, 48 h; for z-score: stronger effect = lower value
How it was run: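 Curves over 11 concentrations were fitted to CellTiter-Glo luminescence, scaled between empty wells (0%) and DMSO (100%) viability. Cells were UOK109, UOK124 and UOK145 TFE3-fusion RCC lines at 500/well, exposed 48 hours at 37 C.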

[5] = qHTS assay for small molecule antagonists of glucocorticoid receptor signaling (AID 588533); conditions: HeLa MMTV-bla, GRE beta-lactamase ratio, antagonist mode, 18 h; measured here: W530 channel AC50
[6] = qHTS assay for small molecule antagonists of vitamin D receptor signaling (AID 588541); conditions: HEK293T VDR-UAS-bla, beta-lactamase ratio, antagonist mode; measured here: W460 blue channel (cell viability)
[7] = qHTS assay for small molecule agonists of retinoid X receptor alpha signaling (AID 588544); conditions: HEK293T RXRa-UAS-bla, beta-lactamase reporter, 18 h; 530 nm emission
[8] = qHTS assay for small molecule antagonists of retinoid X receptor alpha signaling (AID 588546); conditions: HEK293T RXRa-UAS-bla, beta-lactamase ratio, antagonist mode; measured here: W530 green channel, cytotoxicity proxy;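 also: cells stimulated with 9-cis-retinoic acid as agonist; % is scaled to controls: 0 for no effect and ±100 for the full control effect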
How it was run: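 Beta-lactamase reporter inhibition, read as CCF4 fluorescence ratio (ex 405, em 460/530 nm) after 2 h at RT. HEK293T UAS-bla cells, 2500/well, were stimulated with 9-cis-RA at 500 or 100 nM final alongside test compound for 18 h at 37 C.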

[9] = qHTS assay for small molecule antagonists of peroxisome proliferator-activated receptor delta signaling (AID 588535); conditions: HEK293T PPARd-UAS-bla, beta-lactamase FRET ratio, 18 h; 460 nm channel;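 also: cells co-treated with a PPAR-delta agonist as stimulator during compound exposure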
How it was run: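 Titrations were run on PPAR-delta-UAS-bla HEK293T cells in charcoal/dextran-stripped serum, incubated 18 h at 37 C. CCF4 fluorescence (460/530 nm) after 2 h RT; Hill equation yields IC50 and maximal response.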

[10] = qHTS assay for small molecule antagonists of peroxisome proliferator-activated receptor gamma signaling (AID 588537); conditions: HEK293 PPARg-UAS-bla, beta-lactamase ratio, antagonist mode; measured here: W460 blue channel
How it was run: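 Antagonist-mode β-lactamase reporter screen run as a titration series. HEK293 PPARγ-UAS-bla cells are stimulated with rosiglitazone (50 nM final) for 16 h, then CCF4 is read at 460/530 nm. Data are scaled between DMSO and rosiglitazone and fitted to the Hill equation.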

[11] = S16 Schwann cell PMP22 intronic element beta-lactamase assay (AID 624044); conditions: S16 rat Schwann cells, PMP22 element beta-lactamase FRET, 24 h
How it was run: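 Beta-lactamase reporter under a PMP22 intronic regulatory element in stable S16 rat Schwann cells; 24 h compound exposure. 460 nm blue signal normalized between DMSO (0%) and potassium clavulanate, with 535 nm FRET tracking viability; curves classed by r2 and response.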

[12] = qHTS assay for small molecule antagonists of androgen receptor signaling (AID 588516); conditions: AR-UAS-bla HEK293, beta-lactamase ratio, antagonist mode, 16 h; measured here: W460 blue channel fit
How it was run: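 Cells were plated and incubated 5 h, compounds added in titration, then R1881 (10 nM final) as agonist. After 16 h at 37 C, CCF4 substrate was loaded for 2 h at room temperature and fluorescence measured.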

[13] = measured here: red reporter channel AC50, EF-alpha promoter control reporter in MSC80 mouse Schwann cells
[14] = measured here: CBG/CBR ratio read-out
[15] = TFE3-RCC UOK109 viability, measured here: UOK109 Z-AUC
[16] = TFE3-RCC viability, measured here: UOK124 Z-AUC
[17] = TFE3-RCC viability, measured here: UOK124 cell viability
[18] = TFE3-RCC viability, measured here: UOK145 Z-AUC
[19] = measured here: CBR control luciferase (viability counter)
[20] = TFE3-RCC viability, measured here: UOK145 cell viability

In the case of `Fc1ccc([C@@H]2CCNC[C@H]2COc2ccc3c(c2)OCO3)cc1`, the AC50 ([1]; measured here: green reporter channel AC50, mouse Pmp22 promoter in mouse Schwann cells) is reported as 19 µM [falling, full curve], the AC50 [1, 13] is reported as 26.9 µM [falling, full curve] and the AC50 [2, 14] is reported as 16.4 µM [falling, single point]. For the same molecule, the AC50 [3] was 35.5 µM [falling, single point], the z-score [4, 15] was 0.307 and the z-score [4, 16] was 0.408. For the same molecule, the AC50 [4, 17] was 18.7 µM [falling, partial curve] and the z-score [4, 18] was -0.104.

In the case of `Nc1ccc(N=Nc2ccccc2)c(N)n1`, the AC50 [5] is reported as 35.5 µM [falling, partial curve, poor fit], the AC50 [6] is reported as 39.8 µM [falling, partial curve, poor fit] and the max response [7] is reported as -41.9%. The max response [8] was -66.1% and the AC50 [3] was 5.62 µM [falling, full curve, poor fit].

In the case of `CC(C)(C)c1ccc(O)c(O)c1`, the AC50 [5] is reported as 28.2 µM [falling, single point], the max response [7] is reported as 15.2% and -11.8% and the AC50 [3] is reported as 63.1 µM [falling, partial curve, poor fit].

In the case of `CNCCC(Oc1ccc(C(F)(F)F)cc1)c1ccccc1` (stereo not given), the AC50 [2, 14] is reported as 20.6 µM [falling, partial curve], the AC50 [2, 19] is reported as 23.1 µM [falling, single point] and the AC50 [3] is reported as 17.8 µM [falling, single point].

In the case of `O=c1c(O)c(-c2ccc(O)c(O)c2)oc2cc(O)cc(O)c12`, the AC50 [2, 19] is reported as 23.1 µM [falling, partial curve], the AC50 [3] is reported as 5.01 µM [falling, full curve, poor fit] and the z-score [4, 15] is reported as 0.387. For the same molecule, the z-score [4, 16] was 0.306 and the z-score [4, 18] was 0.518.

With `O=C(CCCN1CCN(c2ccc(F)cc2)CC1)NC1c2ccccc2CSc2ccccc21` (stereo not given) the AC50 [3] was 11.2 µM [falling, partial curve, poor fit], the z-score [4, 15] was 0.582 and the z-score [4, 16] was 0.489. For the same molecule, the AC50 [4, 17] was 9.35 µM [falling, partial curve], the z-score [4, 18] was 0.428 and the AC50 [4, 20] was 13.2 µM [falling, partial curve, poor fit].

In the case of `O=C1Cc2cc(CCN3CCN(c4nsc5ccccc45)CC3)c(Cl)cc2N1`, the AC50 [2, 14] is reported as 18.4 µM [falling, partial curve], the AC50 [2, 19] is reported as 29.1 µM [falling, single point] and the AC50 [3] is reported as 3.55 µM [falling, full curve, poor fit]. The z-score [4, 15] was 0.159, the z-score [4, 16] was 0.288 and the AC50 [4, 17] was 33.2 µM [falling, single point]. For the same molecule, the z-score [4, 18] was 0.436.

In the case of `Cc1cnc(NC(=O)C2=C(O)c3ccccc3S(=O)(=O)N2C)s1`, the AC50 [1, 13] is reported as 60.1 µM [falling, partial curve, poor fit], the AC50 [2, 14] is reported as 18.4 µM [falling, single point] and the AC50 [2, 19] is reported as 29.1 µM [falling, single point]. The AC50 [3] was 31.6 µM [rising, single point].

In the case of `CC(S)C(=O)NCC(=O)O` (stereo not given), the AC50 [3] is reported as 10 µM [rising, partial curve], the z-score [4, 15] is reported as 0.689 and the z-score [4, 16] is reported as 0.124. The z-score [4, 18] was 1.19 and the AC50 [4, 20] was 37.2 µM [falling, single point].

In the case of `CN(C)CCC=C1c2ccccc2CCc2ccccc21`, the AC50 [2, 14] is reported as 16.4 µM [falling, single point], the AC50 [2, 19] is reported as 16.4 µM [falling, partial curve] and the max response [9] is reported as 85.4%. The AC50 [10] was 39.8 µM [falling, partial curve, poor fit], the max response [7] was -11.8% and the AC50 [3] was 35.5 µM [falling, partial curve, poor fit].

In the case of `CCCOC(=O)c1ccc(O)cc1`, the max response [9] is reported as -22.4%, the AC50 [10] is reported as 4.47 µM [falling, partial curve, poor fit] and 39.8 µM [falling, partial curve] and the AC50 [3] is reported as 12.6 µM [falling, partial curve, poor fit].

In the case of `C[N+](C)(C)CCCCCC[N+](C)(C)C`, the AC50 [1, 13] is reported as 84.9 µM [falling, single point] and the AC50 [3] is reported as 1 µM [falling, partial curve, poor fit].

In the case of `Oc1c(Cl)cc(Cl)cc1Sc1cc(Cl)cc(Cl)c1O`, the AC50 [5] is reported as 6.31 µM [falling, full curve] and 2.24 µM [falling, full curve, poor fit], the max response [9] is reported as -27.9% and -27.6% and the AC50 [10] is reported as 3.55 µM [falling, full curve] and 7.94 µM [falling, full curve]. For the same molecule, the AC50 [6] was 44.7 µM [falling, partial curve, poor fit], the max response [7] was 38.9% and 39% and the max response [8] was 34.5%. The AC50 ([11]; measured here: 460 nm blue channel) was 35.5 nM [falling, full curve, poor fit], the AC50 ([11]; measured here: 530 nm viability channel) was 20 nM [falling, full curve] and the AC50 [3] was 22.4 µM [falling, single point].

In the case of `O=C(Nc1ccc(Cl)cc1)Nc1ccc(Cl)c(Cl)c1`, the AC50 [12] is reported as 25.1 µM [falling, full curve, poor fit], the max response [9] is reported as -12.3% and the AC50 [3] is reported as 14.1 µM [falling, single point].

With `NCCNc1cccc2ccccc12` the AC50 [12] was 44.7 µM [falling, partial curve, poor fit], the max response [9] was 63.1% and the AC50 [10] was 39.8 µM [falling, partial curve]. The AC50 [6] was 35.5 µM [falling, partial curve], the max response [7] was -46.6% and the AC50 [3] was 14.1 µM [falling, single point].
